# The list does not hold the whole screen: its compounds were picked by chemical class. Not every dose and run of a compound is shown. T/C gives the treated animals as a percentage of the vehicle group. Some entries give survivors of the animals treated and no T/C: the source files T/C as zero there, which appears to mark a toxic dose or a test without result, not a measured value. Some survivor counts are full or nearly so, which does not show that the dose was tolerated: the source hardly ever lists a survival T/C far under the control, and the zero likely stands for such cases as well. Counts of survivors are from the toxicity check (mostly the fifth day) where no day follows; animals may have died later. Schedules are NCI's codes, read here as Q, the interval in days (D) or hours (H), X, the number of doses. Some entries hold several experiments; their values stand side by side, smallest first. For survival time, the PubChem record calls one and a half times the control and up active, and a quarter to a half above the control has no call in these data; cut-offs in other NCI protocols can differ. Some T/C values are marked as having no survivor count here; that says nothing about deaths at the dose. Some T/C values are followed by the survivors on the day toxicity was checked, most often the fifth; where neither a count nor a note follows, no animal had died by that day.
# Test system: P388 leukemia ip, CD2F1 mice, survival T/C
# Test: NCI In Vivo Anticancer Drug Screen. Data for tumor model P388 Leukemia (intraperitoneal) in CD2F1 (CDF1) mice
# Details: T/C endpoint: median survival time, higher T/C = longer survival
# [1] = dose: 100.0 mg/kg/injection, schedule: Q04DX003 (ip), vehicle: Klucel (hydroxypropylcellulose) (HPC)
# [2] = dose: 200.0 mg/kg/injection, schedule: Q04DX003 (ip), vehicle: Klucel (hydroxypropylcellulose) (HPC)
# [3] = dose: 400.0 mg/kg/injection, schedule: Q04DX003 (ip), vehicle: Klucel (hydroxypropylcellulose) (HPC)
# [4] = dose: 50.0 mg/kg/injection, schedule: Q01DX001 (ip), vehicle: Klucel (hydroxypropylcellulose) (HPC)
# [5] = dose: 100.0 mg/kg/injection, schedule: Q01DX001 (ip), vehicle: Klucel (hydroxypropylcellulose) (HPC)
# [6] = dose: 200.0 mg/kg/injection, schedule: Q01DX001 (ip), vehicle: Klucel (hydroxypropylcellulose) (HPC)
# [7] = dose: 60.0 mg/kg/injection, schedule: Q01DX005 (ip), vehicle: saline with Tween-80
# [8] = dose: 120.0 mg/kg/injection, schedule: Q01DX005 (ip), vehicle: saline with Tween-80
# [9] = dose: 240.0 mg/kg/injection, schedule: Q01DX005 (ip), vehicle: saline with Tween-80
# [10] = dose: 50.0 mg/kg/injection, schedule: Q01DX005 (ip), vehicle: Klucel (hydroxypropylcellulose) (HPC)
# [11] = dose: 100.0 mg/kg/injection, schedule: Q01DX005 (ip), vehicle: Klucel (hydroxypropylcellulose) (HPC)
# [12] = dose: 200.0 mg/kg/injection, schedule: Q01DX005 (ip), vehicle: Klucel (hydroxypropylcellulose) (HPC)
# [13] = dose: 100.0 mg/kg/injection, schedule: Q04DX002 (ip), vehicle: saline with Tween-80
# [14] = dose: 200.0 mg/kg/injection, schedule: Q04DX002 (ip), vehicle: saline with Tween-80
smiles,measurement,setting,value
CC(C)OP(C)(=O)O.[Cr],T/C,[1],97 % of control [survivor count not shown]
same,T/C,[2],100 % of control [survivor count not shown]
same,T/C,[3],94 % of control [survivor count not shown]
COP(C)(=O)O,T/C,[4],96 % of control [survivor count not shown]
same,T/C,[5],88 % of control [survivor count not shown]
same,T/C,[6],94 % of control [survivor count not shown]
CN1C(=O)N(C)P(=O)(c2ccccc2)P1c1ccccc1 (centres undefined),T/C,[7],99 % of control
same,T/C,[8],105 % of control
same,T/C,[9],116 % of control
CC1=NP(=O)(Oc2ccccc2)N=C(C)N1,T/C,[10],102 % of control
same,T/C,[11],116 % of control
same,T/C,[12],106 % of control
Cn1cc(N(CCCl)CCCl)c(=O)[nH]c1=O,T/C,"dose: 1.05 mg/kg/injection, schedule: Q04DX003 (ip), vehicle: saline",159 % of control
same,T/C,"dose: 1.6 mg/kg/injection, schedule: Q04DX003 (ip), vehicle: saline",213 % of control
same,T/C,"dose: 2.4 mg/kg/injection, schedule: Q04DX003 (ip), vehicle: saline",250 % of control
O=P1(Cl)OC(c2ccc(Cl)cc2)=CCN1c1ccc(Cl)cc1 (centres undefined),T/C,[13],93 % of control
same,T/C,[14],104 % of control
same,T/C,"dose: 400.0 mg/kg/injection, schedule: Q04DX002 (ip), vehicle: saline with Tween-80",108 % of control
COP(C)(=O)O.[Ti],T/C,"dose: 50.0 mg/kg/injection, schedule: Q01DX009 (ip), vehicle: Klucel (hydroxypropylcellulose) (HPC)",95 % of control [survivor count not shown]
same,T/C,"dose: 100.0 mg/kg/injection, schedule: Q01DX009 (ip), vehicle: Klucel (hydroxypropylcellulose) (HPC)",90 % of control [survivor count not shown]
N=C(N[N+](=O)[O-])N(CCN1CCN=C1N[N+](=O)[O-])N=O,T/C,"dose: 50.0 mg/kg/injection, schedule: Q01DX009 (ip), vehicle: saline sonified",100 % of control
same,T/C,"dose: 50.0 mg/kg/injection, schedule: Q04DX003 (ip), vehicle: Klucel (hydroxypropylcellulose) (HPC)",100 % of control
same,T/C,"dose: 100.0 mg/kg/injection, schedule: Q01DX009 (ip), vehicle: saline sonified",100 % of control
same,T/C,[1],100 % of control
same,T/C,"dose: 200.0 mg/kg/injection, schedule: Q01DX009 (ip), vehicle: saline sonified",109 % of control
same,T/C,[2],90 % of control
C1NNCC12CNNC2.O=[N+]([O-])c1cc([N+](=O)[O-])c(O)c([N+](=O)[O-])c1,T/C,[4],100 % of control [survivor count not shown]
same,T/C,[5],100 % of control [survivor count not shown]
same,T/C,[6],99 % of control [survivor count not shown]
CP(=O)(O)O.[Zr],T/C,[1],102 % of control [survivor count not shown]
same,T/C,[2],96 % of control [survivor count not shown]
same,T/C,[3],93 % of control [survivor count not shown]
CC(C)OP(C)(=O)O.[Fe],T/C,"dose: 100.0 mg/kg/injection, schedule: Q04DX003 (ip), vehicle: saline with Tween-80",97 % of control [survivor count not shown]
same,T/C,"dose: 200.0 mg/kg/injection, schedule: Q04DX003 (ip), vehicle: saline with Tween-80",97 % of control [survivor count not shown]
same,T/C,"dose: 400.0 mg/kg/injection, schedule: Q04DX003 (ip), vehicle: saline with Tween-80",91 % of control [survivor count not shown]
F[P-](F)(F)(F)(F)F.c1ccc([P+]2(c3ccccc3)CCc3ccccc3C2)cc1,T/C,"dose: 1.56 mg/kg/injection, schedule: Q04DX003 (ip), vehicle: saline",96 % of control
same,T/C,"dose: 3.13 mg/kg/injection, schedule: Q04DX003 (ip), vehicle: saline",97 % of control
same,survivor count,"dose: 6.25 mg/kg/injection, schedule: Q04DX003 (ip), vehicle: saline",0 of 6
NC1=NC(c2ccccc2[N+](=O)[O-])P(=O)(Nc2ncccn2)S1 (centres undefined),T/C,[7],109 % of control
same,T/C,[8],109 % of control
same,T/C,[9],106 % of control
Nc1c([N+](=O)[O-])cc([N+](=O)[O-])c(-c2nnc(-c3c([N+](=O)[O-])cc([N+](=O)[O-])c(N)c3[N+](=O)[O-])o2)c1[N+](=O)[O-],T/C,"dose: 50.0 mg/kg/injection, schedule: Q04DX002 (ip), vehicle: saline with Tween-80",102 % of control
same,T/C,[13],109 % of control
same,T/C,[14],100 % of control
O=[N+]([O-])c1cccc(O)c1[N+](=O)[O-],T/C,"dose: 25.0 mg/kg/injection, schedule: Q01DX009 (ip), vehicle: other",100 % of control [5 of 6 alive]
same,T/C,"dose: 50.0 mg/kg/injection, schedule: Q01DX009 (ip), vehicle: other",100 % of control
same,T/C,"dose: 50.0 mg/kg/injection, schedule: Q04DX003 (ip), vehicle: other",110 % of control
same,T/C,"dose: 100.0 mg/kg/injection, schedule: Q01DX009 (ip), vehicle: other",100 % of control
same,T/C,"dose: 100.0 mg/kg/injection, schedule: Q04DX003 (ip), vehicle: other",105 % of control
same,T/C,"dose: 200.0 mg/kg/injection, schedule: Q04DX003 (ip), vehicle: other",100 % of control
CCOP1(=O)N=C(C)NC(C)=N1,T/C,[10],87 % of control [4 of 6 alive]
same,T/C,[11],97 % of control
same,T/C,[12],95 % of control
CCN(CC)C(=O)Oc1ccc(/C=N/NC(N)=S)nc1,T/C,"dose: 25.0 mg/kg/injection, schedule: Q01DX009 (ip), vehicle: saline with Tween-80",108 % of control [5 of 6 alive]
same,T/C,"dose: 50.0 mg/kg/injection, schedule: Q01DX009 (ip), vehicle: saline with Tween-80",109 and 111 % of control
same,T/C,"dose: 100.0 mg/kg/injection, schedule: Q01DX009 (ip), vehicle: saline with Tween-80",117 and 130 % of control
same,survivor count,"dose: 200.0 mg/kg/injection, schedule: Q01DX009 (ip), vehicle: saline with Tween-80",1 of 6 and 3 of 6
Nc1ccc([As]=O)cc1 (centres undefined),T/C,"dose: 0.39 mg/kg/injection, schedule: Q01DX005 (ip), vehicle: saline with Tween-80",126 and 135 % of control
same,T/C,"dose: 0.78 mg/kg/injection, schedule: Q01DX005 (ip), vehicle: saline with Tween-80",128 and 146 % of control
same,T/C,"dose: 1.56 mg/kg/injection, schedule: Q01DX005 (ip), vehicle: saline with Tween-80",128 and 129 % of control
same,T/C,"dose: 3.13 mg/kg/injection, schedule: Q01DX005 (ip), vehicle: saline with Tween-80",131 and 144 % of control
same,survivor count,"dose: 6.25 mg/kg/injection, schedule: Q01DX005 (ip), vehicle: saline with Tween-80",5 of 6
same,survivor count,"dose: 12.5 mg/kg/injection, schedule: Q01DX005 (ip), vehicle: saline with Tween-80",0 of 6
same,survivor count,"dose: 25.0 mg/kg/injection, schedule: Q01DX005 (ip), vehicle: saline with Tween-80",0 of 6
same,survivor count,"dose: 50.0 mg/kg/injection, schedule: Q01DX005 (ip), vehicle: saline with Tween-80",0 of 6
same,survivor count,"dose: 100.0 mg/kg/injection, schedule: Q01DX005 (ip), vehicle: saline with Tween-80",0 of 6
same,survivor count,"dose: 200.0 mg/kg/injection, schedule: Q01DX005 (ip), vehicle: saline with Tween-80",0 of 6
O=[N+]([O-])C1(Br)CCC(Br)([N+](=O)[O-])CC1 (centres undefined),T/C,[4],109 % of control
same,T/C,[5],104 and 108 % of control
same,T/C,[6],100 and 108 % of control
same,T/C,"dose: 400.0 mg/kg/injection, schedule: Q01DX001 (ip), vehicle: Klucel (hydroxypropylcellulose) (HPC)",107 % of control
C/C(=C/C(=O)O)[As]12(OC(C)(C3CCC4CCCC43)O1)OC(C)(C13CCCC1CCC3)O2 (centres undefined),T/C,"dose: 7.5 mg/kg/injection, schedule: Q01DX009 (ip), vehicle: saline with Tween-80",99 % of control
same,T/C,"dose: 15.0 mg/kg/injection, schedule: Q01DX009 (ip), vehicle: saline with Tween-80",98 % of control
same,T/C,"dose: 30.0 mg/kg/injection, schedule: Q01DX009 (ip), vehicle: saline with Tween-80",98 % of control

# Reference: PubChem BioAssay AID330 (DTP/NCI, 2004)
